# PubChem BioAssay AID720505 | Drosophila RNAi Screening Center – 2013
# Assay: 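Knock-downs that reduce calcium influx once internal stores are emptied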 (primary screen)
# System: Drosophila S2R+ cells
# Reagent: long dsRNA against Drosophila genes
# Treatment: thapsigargin (2 µM) in calcium-free buffer to empty internal stores, then 2 mM calcium added back
# Detection: 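Stores emptied by 2 µM thapsigargin without calcium, then 2 mM calcium re-added; fluo-4 fluorescence followed by FLIPR in 384-well plates, per-well averaged endpoint, raw; two screen passes, some wells retested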
# Direction: calcium signal and retest calcium signal: higher = more calcium entry after store depletion
# Rule for the call: 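About 1500 genes called as lowering calcium entry, by varying amounts, judged against per-plate control wells with STIM1 as positive and Rho1 as negative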
# Meaning of the calls: active = called as lowering calcium entry; inactive = not called
# The screen tested about 20,000 reagents; this is an unselected part of those that have a named target and a result. Of all reagents, about 2,100 (10%) were called active. 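Raw plate signals without normalisation; calls rest on control-based scores that were not deposited; replicate 2 separates called from uncalled poorly.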 Entries without a mark were called inactive. The numbers tell different reagents against one gene apart. A plus sign joins genes that one reagent is predicted to hit. Not stated in the record: the amount of reagent, the time to read-out.
Target gene,reagent,"calcium signal, replicate 1","calcium signal, replicate 2","retest calcium signal, replicate 1","retest calcium signal, replicate 2"
ppl,1,60.9 (active),104,,
app,1,91.4,112,,
app,2,106,82.2,,
CG7140,1,89.2,134,,
Cpr72Eb,1,86.2,109,,
CG2187,1,90,121,,
CG10383,1,102,93.1,,
CG17154,1,83.1,98.8,,
Rap2l,1,109,140,,
CG31562 (retired record),1,79.4,171,,
CG31562 (retired record),2,91.2,149,,
LManI,1,188,151,,
Sik2,1,102,136,,
CG14069,1,169,112,,
CG9692,1,115,122,,
CG8414,1,127,109,,
cta,1,156,77.8,,
Obp50e,1,60.1 (active),141,,
wrd,1,193,171,,
wrd,2,194,198,,
wrd,3,115,147,,
mlt (retired record),1,157,183,,
PolH,1,120,107,,
Fer2LCH,1,115,104,,
CROT,1,127,107,,
CROT,2,69.1 (active),120,,
NimB5 + He,1,97.8,160,,
QIL1,1,59.7,132,,
msl-2,1,114,144,,
CG15145,1,106,139,,
CG7888,1,76.8,86.1,,

Targets above whose gene name begins with P or p:
Target gene,reagent,"calcium signal, replicate 1","calcium signal, replicate 2","retest calcium signal, replicate 1","retest calcium signal, replicate 2"
ppl,1,60.9 (active),104,,
PolH,1,120,107,,

Further entries follow.
Target gene,reagent,"calcium signal, replicate 1","calcium signal, replicate 2","retest calcium signal, replicate 1","retest calcium signal, replicate 2"
eIF4H1,1,129,94.1,,
Ir7d,1,54.8 (active),297,,
trbd,1,95.2,112,,
CG4622,1,188,116,,
CG12746,1,107,104,,
CG5399,1,119,126,,
Lint-1 + rtv,1,135,73.2,,
Cyt-c-d,1,113,130,,
ebd1,1,128,101,,
mkg-p,1,109,160,,
BORCS7 + CG13430,1,145,124,,
BORCS7 + CG13430,2,81.3,107,,
CG32201,1,86.9,157,,
PIG-N,1,111,75.5,,
tws,1,76.7 (active),120,,
CG6398,1,183,164,,
CG32318 + Klp61F + Psf1,1,90.1,68,,
mora,1,243,142,,
CG7148,1,95.8,94.1,,
ASPP,1,109,119,,
ASPP,2,108,74.9,,
Sbp2,1,50.1 (active),89.9,,
alka,1,132,196,,
CG14502,1,146,119,,
Sac1,1,154,111,,
ear,1,128,128,,
htt,1,144,179,,
pre-mod(mdg4)-W + pre-mod(mdg4)-Y + mod(mdg4) + 3 more,1,82.5,81.6,,
CG17816,1,95.7,194,8305,135
pk,1,134,109,,
pk,2,110,162,,
pk,3,105,192,,
Rs1,1,147,105,,
Daao1,1,149,165,,
att-ORFB + DPCoAC,1,121 (active),147,,
CG13204,1,128,155,,
ChT,1,102,151,,
Cad96Ca,1,206,165,,
Cad96Ca,2,246,191,,
Cyp6t1,1,108,87.8,,
kraken,1,124,141,,
Dsp1,1,66.9 (active),51.7,,
Dsp1,2,103,95.5,,
Ccp84Ac,1,99,181,,
dmt,1,66.8 (active),95.6,,
Tbc1d22,1,199,352,,
dpr2,1,123,150,,
dpr2,2,129,148,,
CG12659,1,234,99.3,,
CG8774,1,66 (active),108,,
dysc,1,133,83.6,9048,150
dysc,2,120,77.2,,
dysc,3,98.9,206,,
dysc,4,115,232,,
dysc,5,97.6,91.5,,
dysc,6,110,145,,
